These are yes or no findings as the source states them, for the method shown. For part of these data: In cells and extracts the contact can be indirect. Some results given as binding are weak or reduced against the parent protein; the word gives no strength.
How the values were obtained:
[1] = target: T1, Synechocystis sp. PCC 6803 GCS P-protein (glycine decarboxylase), recombinant (Synechocystis sp. PCC 6803) (UniProt P74416); assay: pull-down
T1 sequence: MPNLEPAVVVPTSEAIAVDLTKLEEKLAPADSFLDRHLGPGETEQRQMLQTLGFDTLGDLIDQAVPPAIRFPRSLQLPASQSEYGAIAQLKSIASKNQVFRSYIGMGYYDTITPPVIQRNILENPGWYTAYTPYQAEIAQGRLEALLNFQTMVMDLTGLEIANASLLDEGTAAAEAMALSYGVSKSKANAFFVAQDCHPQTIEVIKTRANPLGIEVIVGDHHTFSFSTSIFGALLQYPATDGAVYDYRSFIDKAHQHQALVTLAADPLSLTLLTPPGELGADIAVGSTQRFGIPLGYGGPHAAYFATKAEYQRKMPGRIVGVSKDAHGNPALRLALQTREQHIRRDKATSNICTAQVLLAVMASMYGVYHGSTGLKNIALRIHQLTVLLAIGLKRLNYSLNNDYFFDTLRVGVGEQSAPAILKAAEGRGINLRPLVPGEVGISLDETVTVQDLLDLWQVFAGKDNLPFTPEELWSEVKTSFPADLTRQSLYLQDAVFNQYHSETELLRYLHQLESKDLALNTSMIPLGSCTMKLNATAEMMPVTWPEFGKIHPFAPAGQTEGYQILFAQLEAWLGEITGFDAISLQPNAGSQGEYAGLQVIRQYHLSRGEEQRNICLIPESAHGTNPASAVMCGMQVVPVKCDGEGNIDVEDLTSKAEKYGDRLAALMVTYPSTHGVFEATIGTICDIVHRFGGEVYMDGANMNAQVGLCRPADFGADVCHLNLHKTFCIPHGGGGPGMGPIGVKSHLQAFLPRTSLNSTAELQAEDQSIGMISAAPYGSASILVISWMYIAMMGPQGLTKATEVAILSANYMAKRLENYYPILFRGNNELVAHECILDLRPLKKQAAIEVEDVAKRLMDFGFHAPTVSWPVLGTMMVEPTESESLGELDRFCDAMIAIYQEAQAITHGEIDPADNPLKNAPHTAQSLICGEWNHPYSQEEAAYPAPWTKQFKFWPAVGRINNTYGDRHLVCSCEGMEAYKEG

[2] = target: T2, recombinant formate dehydrogenase (Pseudomonas sp. 101) (Pseudomonas sp. 101) (UniProt P33160); assay: pull-down
T2 sequence: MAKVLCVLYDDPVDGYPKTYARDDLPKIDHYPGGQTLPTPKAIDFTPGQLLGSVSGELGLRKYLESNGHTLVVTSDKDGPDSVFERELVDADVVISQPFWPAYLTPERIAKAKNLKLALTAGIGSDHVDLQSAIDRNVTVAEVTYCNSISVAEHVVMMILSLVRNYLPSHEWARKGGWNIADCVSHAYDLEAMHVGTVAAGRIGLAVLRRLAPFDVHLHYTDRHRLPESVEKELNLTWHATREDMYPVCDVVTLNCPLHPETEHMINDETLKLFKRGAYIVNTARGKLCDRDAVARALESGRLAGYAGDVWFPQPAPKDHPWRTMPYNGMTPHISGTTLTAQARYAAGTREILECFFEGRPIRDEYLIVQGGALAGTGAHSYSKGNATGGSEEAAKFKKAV

[3] = target: T3, Synechocystis sp. PCC 6803 GCS L-protein (dihydrolipoamide dehydrogenase), recombinant (Synechocystis sp. PCC 6803) (UniProt P72740); assay: pull-down
T3 sequence: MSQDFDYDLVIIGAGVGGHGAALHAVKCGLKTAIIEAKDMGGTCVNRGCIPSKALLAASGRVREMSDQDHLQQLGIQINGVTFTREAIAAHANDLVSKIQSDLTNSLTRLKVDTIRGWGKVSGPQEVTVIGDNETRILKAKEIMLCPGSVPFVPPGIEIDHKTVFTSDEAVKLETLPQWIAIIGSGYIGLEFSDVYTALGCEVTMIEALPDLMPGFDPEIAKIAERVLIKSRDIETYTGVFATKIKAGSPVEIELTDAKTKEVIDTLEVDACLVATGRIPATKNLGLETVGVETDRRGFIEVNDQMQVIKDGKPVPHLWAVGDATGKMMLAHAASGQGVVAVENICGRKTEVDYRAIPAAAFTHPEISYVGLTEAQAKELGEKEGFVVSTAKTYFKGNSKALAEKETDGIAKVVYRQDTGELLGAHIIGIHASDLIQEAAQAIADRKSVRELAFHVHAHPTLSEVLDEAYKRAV

[4] = target: T1, Synechocystis sp. PCC 6803 GCS P-protein (glycine decarboxylase), recombinant (Synechocystis sp. PCC 6803); assay: molecular mass cut-off filtration
[5] = target: T3, Synechocystis sp. PCC 6803 GCS L-protein (dihydrolipoamide dehydrogenase), recombinant (Synechocystis sp. PCC 6803); assay: molecular mass cut-off filtration
[6] = target: T4, Synechocystis sp. PCC 6803 GCS T-protein (aminomethyltransferase), recombinant (Synechocystis sp. PCC 6803) (UniProt P54261); assay: molecular mass cut-off filtration
T4 sequence: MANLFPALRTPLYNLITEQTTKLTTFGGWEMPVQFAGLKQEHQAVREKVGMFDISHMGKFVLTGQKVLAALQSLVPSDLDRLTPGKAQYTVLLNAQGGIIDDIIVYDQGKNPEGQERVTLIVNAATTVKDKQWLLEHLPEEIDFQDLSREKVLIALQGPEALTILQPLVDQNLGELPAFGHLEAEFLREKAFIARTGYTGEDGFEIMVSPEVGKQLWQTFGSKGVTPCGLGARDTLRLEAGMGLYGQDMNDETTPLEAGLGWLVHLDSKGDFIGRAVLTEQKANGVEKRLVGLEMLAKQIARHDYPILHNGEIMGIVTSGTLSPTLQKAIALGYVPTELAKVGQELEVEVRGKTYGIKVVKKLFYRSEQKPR

B1: Synechocystis sp. PCC 6803 GCS L-protein (dihydrolipoamide dehydrogenase), recombinant (enzyme)
chain: MSQDFDYDLVIIGAGVGGHGAALHAVKCGLKTAIIEAKDMGGTCVNRGCIPSKALLAASGRVREMSDQDHLQQLGIQINGVTFTREAIAAHANDLVSKIQSDLTNSLTRLKVDTIRGWGKVSGPQEVTVIGDNETRILKAKEIMLCPGSVPFVPPGIEIDHKTVFTSDEAVKLETLPQWIAIIGSGYIGLEFSDVYTALGCEVTMIEALPDLMPGFDPEIAKIAERVLIKSRDIETYTGVFATKIKAGSPVEIELTDAKTKEVIDTLEVDACLVATGRIPATKNLGLETVGVETDRRGFIEVNDQMQVIKDGKPVPHLWAVGDATGKMMLAHAASGQGVVAVENICGRKTEVDYRAIPAAAFTHPEISYVGLTEAQAKELGEKEGFVVSTAKTYFKGNSKALAEKETDGIAKVVYRQDTGELLGAHIIGIHASDLIQEAAQAIADRKSVRELAFHVHAHPTLSEVLDEAYKRAV
- binding [1]: binds
- binding [2]: no binding

B2: Synechocystis sp. PCC 6803 GCS P-protein (glycine decarboxylase), recombinant (enzyme)
chain: MPNLEPAVVVPTSEAIAVDLTKLEEKLAPADSFLDRHLGPGETEQRQMLQTLGFDTLGDLIDQAVPPAIRFPRSLQLPASQSEYGAIAQLKSIASKNQVFRSYIGMGYYDTITPPVIQRNILENPGWYTAYTPYQAEIAQGRLEALLNFQTMVMDLTGLEIANASLLDEGTAAAEAMALSYGVSKSKANAFFVAQDCHPQTIEVIKTRANPLGIEVIVGDHHTFSFSTSIFGALLQYPATDGAVYDYRSFIDKAHQHQALVTLAADPLSLTLLTPPGELGADIAVGSTQRFGIPLGYGGPHAAYFATKAEYQRKMPGRIVGVSKDAHGNPALRLALQTREQHIRRDKATSNICTAQVLLAVMASMYGVYHGSTGLKNIALRIHQLTVLLAIGLKRLNYSLNNDYFFDTLRVGVGEQSAPAILKAAEGRGINLRPLVPGEVGISLDETVTVQDLLDLWQVFAGKDNLPFTPEELWSEVKTSFPADLTRQSLYLQDAVFNQYHSETELLRYLHQLESKDLALNTSMIPLGSCTMKLNATAEMMPVTWPEFGKIHPFAPAGQTEGYQILFAQLEAWLGEITGFDAISLQPNAGSQGEYAGLQVIRQYHLSRGEEQRNICLIPESAHGTNPASAVMCGMQVVPVKCDGEGNIDVEDLTSKAEKYGDRLAALMVTYPSTHGVFEATIGTICDIVHRFGGEVYMDGANMNAQVGLCRPADFGADVCHLNLHKTFCIPHGGGGPGMGPIGVKSHLQAFLPRTSLNSTAELQAEDQSIGMISAAPYGSASILVISWMYIAMMGPQGLTKATEVAILSANYMAKRLENYYPILFRGNNELVAHECILDLRPLKKQAAIEVEDVAKRLMDFGFHAPTVSWPVLGTMMVEPTESESLGELDRFCDAMIAIYQEAQAITHGEIDPADNPLKNAPHTAQSLICGEWNHPYSQEEAAYPAPWTKQFKFWPAVGRINNTYGDRHLVCSCEGMEAYKEG
- binding [3]: binds

B3: Synechocystis sp. PCC 6803 GCS H-apoprotein (non-lipoylated), recombinant (protein, UniProt P73560 1-132)
chain: MELEHPDDLYYLDSHEYVRFDGETATIGLSAFAVDELGDIVFVELPEEGDKVEFEQSMGAVESVKAASDLYSPVTGTVIEKNSALEDQPELLNQDPYGEEGWLIKVRLDDVEDAKEGLMAAGDYRATLETGD
- binding [4]: binds
- binding [5]: binds
- binding [6]: binds
